Measurements reported in PubChem BioAssay AID504444 (National Center for Advancing Translational Sciences (NCATS), 2011).
Hit rate of the full screen: of about 360,000 compounds, about 7,500 (2.1%) were called active. The inconclusive results got no clear call from the source; some entries with a clear call stand among them for comparison. Calls follow the shape of the dose curve; as a rule, active = well fitted inhibition curve with a large enough effect; inconclusive = small, poorly fitted or top-dose-only effect, or effect the other way; inactive = flat fitted curve, though single readings scatter. Potencies beside an inconclusive call are fits to weak or partial responses and may not hold up.

assay: Nrf2 qHTS screen for inhibitors; conditions: A549 ARE-Fluc reporter, luciferase luminescence, 18-24 h; activity change, negative = inhibition: at 46 µM (top of the series); also: nearly all actives have a fitted effect of over 60% in size
How it was run: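 Nrf2 function is reported as luminescence of an ARE-controlled luciferase in A549 cells. Compounds were tested at several concentrations, and a CellTiter-Fluor read on the same wells flagged cytotoxicity.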
% is scaled to controls: 0 for no effect and ±100 for the full control effect; potency is read from the fitted curve at half-maximal effect.

| Compound | Potency | activity change, negative = inhibition |
| --- | --- | --- |
| Cc1ccc(N(CC(=O)N2CCN(c3ccc(Cl)cc3)CC2)S(=O)(=O)c2c(C)noc2C)cc1 | inconclusive: 20.6 µM [falling, single point] |  |
| COc1ccc(-c2coc3cc(OC4OC(CO)C(O)C(O)C4O)ccc3c2=O)cc1 (stereo not drawn) | inconclusive: 18.4 µM [activator, single point] |  |
| CC(=O)CCn1c(=O)n(CCC(C)=O)c(=O)n(CCC(C)=O)c1=O |  | inactive: 4.15% |
| CNC(=S)/N=C/NOCc1c(Cl)cccc1Cl | inconclusive: 18.4 µM [falling, partial curve, poor fit] |  |
| Cc1csc(NC(=O)c2ccc3c(=O)n4c(nc3c2)CCCCC4)n1 | inconclusive: 1.64 µM [activator, full curve, poor fit] |  |
| CCOC(=O)c1c(NC(=O)N/N=C/c2ccccc2OCC)sc(C(C)=O)c1C |  | inactive: 2.34% |
| COc1ccc(-c2nn(CC(=O)Nc3ccccc3F)c3c2cnc2ccc(F)cc23)cc1 | inconclusive: 6.51 µM [activator, partial curve, poor fit] |  |
| Cc1cc2ccccn2c1C(=O)c1nc(NCc2ccccc2)ncc1Cl | inconclusive: 0.82 µM [activator, full curve] |  |
| COc1ccccc1NC(=O)N1CCN(c2ccnc3cc(Cl)ccc23)CC1 | active: 13 µM |  |
| Cc1cc(=O)oc2cc(Oc3ccc([N+](=O)[O-])cc3[N+](=O)[O-])ccc12 |  | inactive: -7.21% |
| COc1cc2c(cc1OC)C(C)N(C(=O)c1cc3c(s1)-c1ccccc1OC3)CC2 (stereo not drawn) | inconclusive: 29.1 µM [falling, single point] |  |
| C[C@H](CO)N1C[C@H](C)[C@@H](CN(C)Cc2ccccc2)Oc2ccc(NC(=O)CCCCCC(=O)Nc3ccccc3N)cc2C1=O | inconclusive: 23.1 µM [activator, partial curve, poor fit] |  |
| COc1cccc(CNC(=O)Cc2ccc(Br)cc2)c1 | inconclusive: 16.4 µM [activator, partial curve, poor fit] |  |
| O=C(Nc1ccc2oc(=O)ccc2c1)c1cc([N+](=O)[O-])ccc1N1CCOCC1 | inconclusive: 9.2 µM [falling, partial curve, poor fit] |  |
| Cc1cc(O)c(C2=Nc3ccccc3SC(c3ccc(Cl)cc3)C2)c(=O)o1 (stereo not drawn) | inconclusive: 11.6 µM [activator, partial curve] |  |
| COc1ccc(C2NC(=O)c3c(sc4c3CCN(C)C4)N2)cc1O (stereo not drawn) |  | inactive: -0.788% |
| CCc1cccc(C)c1N=Cc1c(O)c2ccccc2oc1=O | inconclusive: 16.4 µM [falling, partial curve] |  |
| C=C(C)COc1ccc2c(C)c(CC(=O)OC)c(=O)oc2c1C | inconclusive: 20.6 µM [falling, single point] |  |
| Cn1cccc1/C=N/NC(=O)Cc1ccccc1 | inconclusive: 25.9 µM [falling, single point] |  |
| Cn1cc(C(C[N+](=O)[O-])c2ccccc2)c2ccccc21 (stereo not drawn) | inconclusive: 29.1 µM [falling, single point] |  |
| COc1ccc(-n2c(SCc3cccnc3)nc3c(c2=O)SCC3)cc1OC | inconclusive: 14.6 µM [falling, partial curve, poor fit] |  |
| COc1ccccc1NC(=O)CN1C(=O)c2cccc3cccc1c23 |  | inactive: -14.7% |

In another format: three of the compounds above.
Compound	Potency	activity change, negative = inhibition
COc1ccccc1NC(=O)N1CCN(c2ccnc3cc(Cl)ccc23)CC1	active: 13 µM	
COc1cc2c(cc1OC)C(C)N(C(=O)c1cc3c(s1)-c1ccccc1OC3)CC2 (stereo not drawn)	inconclusive: 29.1 µM [falling, single point]	
COc1ccc(C2NC(=O)c3c(sc4c3CCN(C)C4)N2)cc1O (stereo not drawn)		inactive: -0.788%

More entries follow:

| Compound | Potency | activity change, negative = inhibition |
| --- | --- | --- |
| COc1cccc(C(=O)N/N=C(\C)CC(=O)Nc2ccc(N(C)C)cc2)c1 | inconclusive: 29.1 µM [falling, single point] |  |
| COc1ccc(CCNC(=O)c2cc(-c3ccccc3)c(N3CCOCC3)s2)cc1OC | inconclusive: 20.6 µM [falling, single point] |  |
| CCOC(=O)NN1C(=O)c2ccccc2NC1c1ccccc1 (stereo not drawn) |  | inactive: 5.99% |
| CC(=O)c1ccc(N2CCN(C(=S)Nc3ccc(Oc4ccccc4)cc3)CC2)cc1 | active: 6.51 µM |  |
| CC(=O)OCC(=O)C1(O)CCC2C3CC(F)C4=CC(=O)CCC4(C)C3C(=O)CC21C (stereo not drawn) |  | inactive: -27.4% |
| C=C(C)C1CC=C(C)/C(=N/NC(=O)COc2cccc(C)c2)C1 (stereo not drawn) | inconclusive: 7.31 µM [falling, partial curve] |  |
| CCCC(=O)O[C@]1(C(=O)CCl)[C@@H](C)C[C@H]2[C@@H]3CCC4=CC(=O)C=C[C@]4(C)[C@@]3(F)C(=O)C[C@@]21C | inconclusive: 0.0052 µM [falling, full curve, poor fit] |  |
| Cc1ccc(-c2nnc(-c3ccc(NC(=O)c4cccs4)cc3)o2)cc1 | inconclusive: 1.16 µM [falling, full curve, poor fit] |  |
| CN(C)S(=O)(=O)c1ccc(NC(=O)CSc2ncnc3ccccc23)cc1 | inconclusive: 29.1 µM [falling, single point] |  |
| CCN(CC)C(=O)c1c2c(nc3ccccc13)-c1ccccc1CC2 |  | inactive: -12.3% |
| O=[N+]([O-])c1ccc(Oc2ccc(S(=O)(=O)N3CCOCC3)cc2)cc1 | active: 25.9 µM |  |
| COC(=O)Nc1ccc(S(=O)(=O)N2CCCc3ccccc32)cc1 |  | inactive: 8.3% |
| CCOc1ccc(NS(=O)(=O)c2ccc(C(=O)N3CCCC(C)C3)cc2)cc1 (stereo not drawn) | active: 7.31 µM |  |
| CSc1nc2sc3c(c2c(=O)[nH]1)CCC(C)C3 (stereo not drawn) | inconclusive: 20.6 µM [activator, single point] |  |
| CC(C)C[C@H](NC(=O)OC(C)(C)C)C(=O)N/N=C/c1ccc2nccnc2c1 |  | inactive: -24% |
| Cc1nc(NC(C)c2ccccc2)sc1C(=O)Nc1ccccc1 (stereo not drawn) | inconclusive: 9.2 µM [falling, partial curve] |  |
| CCN(c1ccc(Cl)cc1)S(=O)(=O)c1nnc(NC(=O)C2CCCCC2)s1 |  | inactive: -11.1% |
| Cn1c(=O)cc(N2CCOCC2)[nH]c1=O | inconclusive: 4.11 µM [falling, full curve] |  |
| Cc1cc(C(=O)COC(=O)c2cccc(NS(C)(=O)=O)c2)c(C)n1CC1CCCO1 (stereo not drawn) | inconclusive: 2.31 µM [activator, partial curve] |  |
| O=C(NNc1ccnc2cc(Cl)ccc12)C1CCCCC1 | active: 3.26 µM |  |
| CCOCCc1nn2c(=O)cc(COC(=O)c3cccs3)nc2s1 | inconclusive: 20.6 µM [activator, partial curve] |  |
